Test results as given in patent US9353151B2, “HLA-binding peptide, and DNA fragment and recombinant vector coding for said HLA-binding peptide” (NEC Corporation, priority 2005, dated 2016).
Part of at least one peptide drawing is inferred or uncertain, most often the ends. Some entries repeat one wording, which the source may state once for all of them. No end group written: not given here.

The sequences below were run against HLA-A2 molecule (product of the HLA-A*0201 gene) (Homo sapiens, UniProt P04439, D140Y/D185E/D98H/E176V/E277Q/G131W/G231S/I119V/I121R/I166T/I218V/L300P/L318F/N151K/N90K/P208A/P217A/Q86G/Q94H/R138H/R169H/T345S) (assay: Experiment of binding peptide to HLA-A2 molecule (JY cells, flow cytometry)).
Procedure: JY cells were first exposed to acidic conditions at a pH of 3.8 for 30 seconds, thus dissociating and removing a light chain β2m and an endogenous peptide, which were noncovalently associated with the HLA-A*0201 molecule. After neutralization, a reassociation experiment was carried out.
The above-mentioned JY cells and the purified β2m were added to stepped dilutions of peptide for which the binding ability would be measured, and incubation was carried out on ice for 4 hours. HLA-A*0201 molecules that had reassociated up to this point were stained using the associating type specific fluorescently-labeled monoclonal antibody BB7.2.
Subsequently, the amount of fluorescence per cell was measured using a flow cytometer and a dissociation constant Kd value in molar concentration was calculated by a published method (Udaka et al., Immunogenetics, 51, 816-828, 2000).

Binding to a human HLA-A type molecule (in words), experimentally confirmed to bind:
FLKDHRISTF [compound 61]
SSGCAFLSV [compound 21]
TLPPAWQPF [compound 23]
